This series can be described thus: general procedure: solution-phase peptide synthesis; dehydro azlactone ring opening; isobutyl chloroformate/N-methylmorpholine; DCC/H.

These results are taken from patent US4283328A (Research Corporation, priority 1979, dated 1981).

Regarding BOC-DAla-Gly-ΔPhe-Met NH2, the step yield (coupling step) came out at 54%.

Turning to H.Pro-ΔPhe-His-Leu.OH.2HBr, the step yield (late stage modification step) amounted to 69%.

The substance N-carbobenzoxy-Gly-Gly-Phe-MetNH2 displayed a step yield (coupling step) of 60%.

Turning to “S-trityl-3-Mercaptopropanoyl-Prolyl-Δ-Phenylalanyl-Histidyl-Leucine.OH”, the step yield (coupling step) came out at 68%.

As for Z-Pro-ΔPhe-His-Leu.OCH3, the step yield is on record as 84% (coupling step, run 1) and 76% (coupling step, run 2).

As for Z-Pro-ΔPhe-His-Leu.OH, the step yield reads like this: (coupling step) 81%; (late stage modification step) 64%.
